Results taken from PubChem BioAssay AID493014 (National Center for Advancing Translational Sciences (NCATS), 2011).
The list shows a part of the results. These are further read-outs of the screen, such as a control signal, another cell line or another target. No call is given for them. The list favours compounds with an active or inconclusive main result. Words in brackets tell the shape of the fitted curve; partial curves, single points and poor fits give uncertain potencies.

Test: qHTS Assay to Find Inhibitors of Chronic Active B-Cell Receptor Signaling
Settings: ABC-DLBCL IkBa-CBG/CBR reporter, luminescence ratio (green luciferase fused to IkBa over red control in TMD8 lymphoma cells), 4 h
Procedure, shortened: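 TMD8 ABC-DLBCL cells carrying doxycycline-inducible green luciferase fused to IkappaBalpha plus unfused red luciferase were exposed to compounds (up to 46 uM) for 4 hrs at 37C. Activity came from the overlap-corrected green/red luminescence ratio.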

[1] = measured here: CBR red luminescence, cell number

| Compound | AC50 [1] | AC50 (measured here: IkBa-CBG green luminescence) |
| --- | --- | --- |
| COc1ccccc1NC(=O)Nc1cccc(NC(C)=O)c1 | 5.62 µM [falling, partial curve, poor fit] | – |
| Cc1cnc(NC(=O)CCc2ccccc2)s1 | 11.2 µM [falling, single point] | – |
| Cc1cc(C)n(C(=O)c2ccc(NC(=O)C3CC3)cc2)n1 | 23.1 µM [rising, partial curve, poor fit] | – |
| COCC1CCCN(C(=O)c2cc(COc3ccc4ncccc4c3)on2)C1 (stereo unspecified) | 11.2 µM [falling, partial curve] | – |
| CCOc1cc(CN2CCN(CCOCCO)CC2)ccc1OC | 2.59 µM [falling, partial curve, poor fit] | – |
| COc1ccc(Nc2nc(N)nc(CSC(=S)N3CCCCC3)n2)cc1 | 25.1 µM [falling, single point] | – |
| CCOc1cc(C(=O)Nc2ccc(S(=O)(=O)NC3=NCCCCC3)cc2)cc(OCC)c1OCC | 14.1 µM [falling, single point] | – |
| COc1ccccc1Nc1ncnc2c1nc1n2CCCC1 | 6.31 µM [rising, partial curve] | – |
| Cc1cc(-n2cnnn2)ccc1C(C)C | 3.98 µM [rising, full curve] | – |
| CCN(CC)CCN(C)C(=O)c1ccc(OC2CCN(C(=O)C3CC3)CC2)cc1 | 14.1 µM [rising, single point] | – |
| CCC(C)n1c(SCC(=O)Nc2ccccc2C(F)(F)F)nc2ccsc2c1=O (stereo unspecified) | 35.5 µM [falling, single point] | – |
| CCc1nc(Nc2ccc3c(c2)OCO3)c2oc3ccccc3c2n1 | 3.55 µM [falling, partial curve] | – |
| COc1ccc(NS(=O)(=O)c2ccc(NC(=S)NC(=O)c3cccc(F)c3)cc2)nn1 | 20.6 µM [falling, partial curve, poor fit] | – |
| O=C(CNC(=O)c1ccco1)OCc1ccccc1F | 5.17 µM [rising, full curve, poor fit] | – |
| CCCCn1c(SCc2cc(=O)n3ccsc3n2)nc2cc(C(=O)OC)ccc2c1=O | 35.5 µM [falling, partial curve, poor fit] | – |
| N#Cc1nc(COc2ccc(Br)cc2)oc1NCCCn1ccnc1 | 25.9 µM [falling, single point] | – |
| O=C(CSc1ccc(Cl)cc1)Nc1cccc(NC(=O)c2ccco2)c1 | 1 µM [falling, full curve] | – |
| O=C(NCCc1ccccc1)C1COc2ccccc2O1 (stereo unspecified) | 6.31 µM [rising, single point] | – |
| COC(=O)C1=C(N)Oc2cc(C)n(CCCn3ccnc3)c(=O)c2C1c1ccc(Cl)cc1 (stereo unspecified) | 0.794 µM [falling, full curve, poor fit] | – |
| O=C(c1ccc(Cl)c(S(=O)(=O)NCc2cccnc2)c1)N1CCCC1 | 2.91 µM [rising, full curve, poor fit] | – |
| CCCCNC(=O)Nc1nnc(C(C)(C)C)s1 | 1.12 µM [rising, partial curve, poor fit] | – |
| CSc1ccccc1C(=O)C1CCCN(C(=O)CCc2cccnc2)C1 (stereo unspecified) | 17.8 µM [falling, single point] | – |

| Compound | AC50 [1] | AC50 (measured here: IkBa-CBG green luminescence) |
| --- | --- | --- |
| Cc1cc(C)n2nc(S(=O)(=O)N(C)Cc3ccccc3)nc2n1 | 29.1 µM [rising, single point] | – |
| CCCCCn1c(=N)n(CC(O)COc2ccccc2OC)c2ccccc21 (stereo unspecified) | 16.4 µM [falling, partial curve, poor fit] | – |
| Cc1ccc2[nH]c(=O)c(-c3noc(CC(C)C)n3)cc2c1 | 0.708 µM [rising, full curve, poor fit] | – |
| O=C(Nc1ccc(-c2nc3cccnc3s2)cc1)c1ccc(Br)o1 | 0.58 µM [rising, full curve] | – |
| CC(=O)Oc1ccc(C(=O)Nc2cccc(NC(=O)c3ccco3)c2)cc1 | 7.08 µM [falling, partial curve] | – |
| COc1cc(/C=C2\CCC(C3CCCC3)C2=O)cc(OC)c1OC (stereo unspecified) | 6.31 µM [rising, partial curve, poor fit] | – |
| CCOC(=O)C1CCN(C(=O)COc2ccc(Cl)cc2)CC1 | 2.51 µM [falling, full curve] | – |
| CCC(=O)NC(=S)Nc1ccc(NC(=O)c2ccc(Br)o2)cc1 | 17.8 µM [falling, partial curve, poor fit] | – |
| CCc1c(C)[nH]n(CCC#N)c1=O | 15.8 µM [falling, single point] | – |
| CCN(CC)S(=O)(=O)c1cccc(NC(=O)CCSc2ccc(Cl)cc2)c1 | 23.1 µM [falling, single point] | – |
| CCNc1nc(C#N)nc2c1ncn2-c1cc(F)cc(F)c1 | 1.64 µM [rising, full curve, poor fit] | – |
| CCN1C(=O)c2cccc3c(S(=O)(=O)N(C(=O)c4cccnc4)c4ccc(OC)cc4)ccc1c23 | 0.411 µM [rising, full curve, poor fit] | – |
| CC(C)(C)C(=O)Nc1nc2c(s1)COc1ccccc1-2 | 1.16 µM [falling, partial curve, poor fit] | – |
| Cc1ccccc1OCC(=O)N(Cc1cccs1)C1CCS(=O)(=O)C1 (stereo unspecified) | 7.94 µM [falling, partial curve] | – |
| CCOc1ccc(-c2nn3c(-c4ccccc4)nnc3s2)cc1 | 0.00411 µM [rising, full curve, poor fit] | – |
| COc1cc(/C=C/c2ccc3cccc(O)c3n2)ccc1O | 7.08 µM [rising, partial curve, poor fit] | 22.4 µM [falling, single point] |
| O=C(Cc1ccc(Cl)cc1Cl)Nc1ccc(OC(F)F)c(Cl)c1 | 9.2 µM [rising, partial curve] | – |
| CCOC(=O)c1nn(-c2cccc(Cl)c2)c(C)c1C(C)=O | 18.4 µM [rising, single point] | – |
| O=C(Nc1cc2c(cc1Cl)OCCO2)c1ccco1 | 14.6 µM [rising, single point] | – |
| CCN(CC)S(=O)(=O)c1ccc(N2CCOCC2)c(NC(=O)C23CC4CC(CC(Cl)(C4)C2)C3)c1 | 0.58 µM [rising, full curve, poor fit] | – |
| COc1ccc(C(=O)O)cc1S(=O)(=O)N(CCc1ccccc1)Cc1ccccc1 | 0.282 µM [falling, partial curve, poor fit] | – |
| Cc1cccn2c(=O)nc(SCC(=O)NCCc3ccccc3)nc12 | 6.51 µM [rising, partial curve, poor fit] | – |

A few values from the entries so far.
Cc1cccn2c(=O)nc(SCC(=O)NCCc3ccccc3)nc12 | AC50 [1]: 6.51 µM [rising, partial curve, poor fit]
CC(C)(C)C(=O)Nc1nc2c(s1)COc1ccccc1-2 | AC50 [1]: 1.16 µM [falling, partial curve, poor fit]
Cc1ccc2[nH]c(=O)c(-c3noc(CC(C)C)n3)cc2c1 | AC50 [1]: 0.708 µM [rising, full curve, poor fit]
CCCCCn1c(=N)n(CC(O)COc2ccccc2OC)c2ccccc21 (stereo unspecified) | AC50 [1]: 16.4 µM [falling, partial curve, poor fit]

Remaining list, next part

| Compound | AC50 [1] | AC50 (measured here: IkBa-CBG green luminescence) |
| --- | --- | --- |
| O=c1[nH]c(CSc2nnc(COc3ccccc3)n2-c2ccccc2)nc2ccccc12 | 16.4 µM [falling, single point] | – |
| COc1ccc(CC(=O)Nc2sc(Cc3ccccc3)c(C)c2C(N)=O)cc1 | 12.6 µM [rising, single point] | – |
| O=C(Nc1nc2c(Cl)ccc(Cl)c2s1)c1ccco1 | 0.517 µM [falling, full curve, poor fit] | – |
| COc1ccc(N/C=C(/C(C)=O)c2ccccc2)cc1 | 11.6 µM [rising, partial curve] | – |
| O=C(N/N=C/c1ccccc1[N+](=O)[O-])c1ccc(COc2ccccc2-c2ccccc2)cc1 | 4.61 µM [rising, partial curve, poor fit] | – |
| Clc1cccc(-n2ncc3c(N4CCN(Cc5ccccc5)CC4)ncnc32)c1 | 35.5 µM [falling, single point] | – |
| O=C(CSc1nc2ccccc2c(=O)[nH]1)c1ccccc1 | 18.4 µM [falling, partial curve, poor fit] | – |
| Cc1ccnc(SCC(=O)c2ccc(Br)s2)n1 | 35.5 µM [rising, single point] | – |
| CCCC(=O)c1ccc(N2CCCC2)c(F)c1 | 18.4 µM [rising, single point] | – |
| COc1cccc(-c2nnc(NC(=O)c3cccc(F)c3)o2)c1 | 1.78 µM [falling, full curve] | – |
| Cc1ccc(NC(=O)Nc2cc(S(C)(=O)=O)ccc2Cl)cc1 | 2.51 µM [rising, partial curve] | – |
| C[C@H](CO)N1C[C@H](C)[C@@H](CN(C)S(=O)(=O)c2ccccc2)Oc2ccc(NC(=O)CCC(F)(F)F)cc2C1=O | 20.6 µM [rising, single point] | – |
| Cc1cccnc1NC(=O)c1cc2ccccc2oc1=O | 2.24 µM [falling, partial curve, poor fit] | – |
| Cc1[nH]c2ccccc2c1CCNC(=O)c1ccc2c(c1[N+](=O)[O-])C(=O)c1ccccc1C2=O | 14.1 µM [falling, single point] | – |
| COC(=O)C1=C(COc2ccccc2)NC(=O)NC1c1ccc(Br)cc1 (stereo unspecified) | 29.1 µM [falling, single point] | – |
| Cc1cc(N(CC(=O)O)S(C)(=O)=O)ccc1Br | 6.51 µM [rising, single point] | – |
| CC(=O)OCC(=O)N1N=C(c2ccc3ccccc3c2)CC1c1ccccc1 (stereo unspecified) | 12.6 µM [falling, partial curve, poor fit] | – |
| CCOc1ccc(C)cc1S(=O)(=O)n1ccnc1 | 0.366 µM [rising, full curve, poor fit] | – |
| O=C(NCc1ccc(F)cc1)C1CCCN(C(=O)NCc2ccccc2)C1 (stereo unspecified) | 12.6 µM [rising, partial curve, poor fit] | – |
| CCn1c(Cc2ccc(OC)cc2)nnc1SCC(=O)Nc1cccc(C(=O)OC)c1 | 2.31 µM [falling, partial curve, poor fit] | – |
| COc1ccc(C(=O)Nc2ncc3c(n2)-c2ccccc2CC3)cc1 | 3.98 µM [falling, partial curve, poor fit] | – |
